Counter-ions that a name gives are not always drawn.
Experiments:
[1] = test system: T1, voltage-sensitive sodium channel (site 2); assay type: binding; settings: 100 µM, rat cerebral cortex preparation, in duplicate (Cerep)
T1 construct: gene Scn1a; native preparation from rat cerebral cortex; subtype not defined

[2] = test system: T2, L-type Ca2+ channel (dihydropyridine site); test: radioligand displacement, [3H]nitrendipine; settings: 100 µM, rat cerebral cortex preparation, in duplicate (Cerep)
T2 construct: gene Cacna1c

Compound	Na^+ Channel (Site 2) / % Inhibition of Control Specific Binding [1]	L-Type Ca^2+ Channel / % Inhibition of Control Specific Binding [2]
O=C1CC(c2cc3ccccc3s2)C(=O)N1CCN1CCOCC1 (stereo not shown) [compound 32, 3-(Benzo[b]thiophen-2-yl)-1-(2-morpholinoethyl)pyrrolidine-2,5-dione hydrochloride]	15.8%	28.2%
O=C1CC(c2cc3ccccc3s2)C(=O)N1CCCN1CCOCC1 (stereo not shown) [compound 33, 3-(Benzo[b]thiophen-2-yl)-1-(3-morpholinopropyl)pyrrolidine-2,5-dione hydrochloride]	62.2%	12.2%

Reference: article PMC11597642, “Discovery of New 3-(Benzo[b]Thiophen-2-yl)Pyrrolidine-2,5-Dione Derivatives as Potent Antiseizure and Antinociceptive Agents—In Vitro and In Vivo Evaluation” (Pharmaceuticals, 2024)
